Data source: PubChem BioAssay AID1671195 (Yale University, 2021)
Shown is a random part of about 22,000 deposited reagents. Of all reagents, about 1,510 (6.9%) got an active call. 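Active includes knockdowns raising or lowering LDL uptake; positive z-scores mean more uptake, negative mean less.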 Reagents against one gene are numbered here. Reagent sequences are not shown.

Assay: 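Regulators of LDL receptor activity judged by labelled LDL uptake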 (primary screen)
Cell system: human Huh7 hepatoma cells
Reagent: siRNA pool against human genes, 18 nM
Duration: about 2 to 2.5 days of knockdown, then 8 h LDL uptake
Challenge: DiI-labelled LDL at 30 µg/ml for 8 h, in lipoprotein-deficient serum medium
Measurement: 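Per-cell DiI-LDL intensity by automated imaging; well means scaled to the plate median and given as a robust z-score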
Direction: robust z-score: higher = more LDL uptake after knockdown
Call rule: 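a gene counts as active if at least two replicate z-scores exceed ±2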

| gene | pool no. | robust z-score, replicate 1 | robust z-score, replicate 2 | robust z-score, replicate 3 | outcome |
| --- | --- | --- | --- | --- | --- |
| DIP2A (DIP2 acetate--CoA ligase A) | 1 | -0.648 | 0.653 | -2.12 | inactive |
| LOC391062 (retired record) | 1 | -1.25 | -1.37 | -1.33 | inactive |
| EPHX1 (epoxide hydrolase 1) | 1 | -0.215 | 0.0344 | 0.207 | inactive |
| REL-DT (REL divergent transcript) | 1 | 1.27 | 1.67 | 2.22 | inactive |
| IGFL4 (IGF like family member 4) | 1 | -0.665 | -0.401 | -0.358 | inactive |
| IGFL4 (IGF like family member 4) | 2 | -1.75 | -2.07 | -1.49 | inactive |
| COQ9 (coenzyme Q9) | 1 | 2.48 | 3.93 | 3.1 | active |
| ACTR8 (actin related protein 8) | 1 | -0.325 | -0.524 | 0.0479 | inactive |
| CLIC1 (CLIC family member 1) | 1 | -1.44 | -1.98 | -0.88 | inactive |
| CD36 (CD36 molecule (CD36 blood group)) | 1 | -1.84 | -1.95 | -2.09 | active |
| MAFB (MAF bZIP transcription factor B) | 1 | -1.71 | -0.974 | 1.88 | inactive |
| STK33 (serine/threonine kinase 33) | 1 | 1.63 | 3.18 | 1.77 | inactive |
| LOC440892 (retired record) | 1 | -1.83 | 1.13 | 1.44 | inactive |
| OR4K2 (olfactory receptor family 4 subfamily K member 2) | 1 | -0.875 | -0.937 | -1.1 | inactive |
| LOC441666 (zinc finger protein 91 pseudogene) | 1 | 1.21 | 1.98 | 1.79 | inactive |
| LOC400682 (zinc finger protein 100-like) | 1 | 0.61 | 0.626 | 0.894 | inactive |
| LOC388131 (retired record) | 1 | 0.344 | 1.08 | 0.692 | inactive |
| COMMD4P1 (COMM domain containing 4 pseudogene 1) | 1 | -0.62 | -0.593 | -0.516 | inactive |
| CEMIP2 (cell migration inducing hyaluronidase 2) | 1 | -0.949 | 0.628 | -0.988 | inactive |
| RSPRY1 (ring finger and SPRY domain containing 1) | 1 | 0.42 | 0.525 | 0.411 | inactive |
| SPATA6 (spermatogenesis associated 6) | 1 | 1.36 | 1.44 | 1.04 | inactive |
| PRRX2 (paired related homeobox 2) | 1 | 2.46 | 5.95 | 3.31 | active |
| S100A7A (S100 calcium binding protein A7A) | 1 | -0.192 | -0.667 | -1.13 | inactive |
| PSMG4 (proteasome assembly chaperone 4) | 1 | 0.899 | 0.712 | 1.46 | inactive |
| PRKRIP1 (PRKR interacting protein 1) | 1 | -0.592 | -1.15 | -0.853 | inactive |
| ZNF549 (zinc finger protein 549) | 1 | -1.45 | -1.56 | -1.56 | inactive |
| OR56B1 (olfactory receptor family 56 subfamily B member 1) | 1 | -0.423 | -0.518 | 0.0932 | inactive |
| GNPNAT1 (glucosamine-phosphate N-acetyltransferase 1) | 1 | -2.11 | 0.708 | 2.11 | inactive |
| KRTAP19-4 (keratin associated protein 19-4) | 1 | -0.421 | -0.295 | -0.111 | inactive |
| CYP2A6 (cytochrome P450 family 2 subfamily A member 6) | 1 | -1.2 | -1.14 | -0.933 | inactive |
| GPX3 (glutathione peroxidase 3) | 1 | 0.92 | 1.16 | 1.44 | inactive |
| AKIP1 (A-kinase interacting protein 1) | 1 | -2.41 | -0.94 | -0.166 | inactive |
| ASXL3 (ASXL transcriptional regulator 3) | 1 | 1.55 | 1.49 | 1.09 | inactive |
| LOC389233 (retired record) | 1 | 0.24 | 0.0672 | 0.557 | inactive |
| DNAJC13 (DnaJ heat shock protein family (Hsp40) member C13) | 1 | 0.29 | 0.129 | 0.689 | inactive |
| BTBD2 (BTB domain containing 2) | 1 | 0.31 | 0.419 | 0.18 | inactive |
| LOC400614 (retired record) | 1 | -0.646 | -0.327 | -0.399 | inactive |
| LOC401216 (retired record) | 1 | 1.13 | 0.745 | 1.39 | inactive |
| SPP1 (secreted phosphoprotein 1) | 1 | 3.56 | 2.13 | 2.06 | active |
| ANKRD31 (ankyrin repeat domain 31) | 1 | 1.14 | 1.12 | 1.02 | inactive |
| PNPO (pyridoxamine 5'-phosphate oxidase) | 1 | -0.676 | 0.468 | -0.614 | inactive |
| PAK1 (p21 (RAC1) activated kinase 1) | 1 | 0.184 | 0.904 | -0.313 | inactive |
| GALNT9 (polypeptide N-acetylgalactosaminyltransferase 9) | 1 | -0.628 | 1.68 | -0.381 | inactive |
| ZNF547 (zinc finger protein 547) | 1 | 0.18 | -0.121 | 0.177 | inactive |
| VIRMA (vir like m6A methyltransferase associated) | 1 | 1.33 | 0.0351 | 2.2 | inactive |
| UGT1A8 (UDP glucuronosyltransferase family 1 member A8) | 1 | 0.631 | 0.736 | 1.09 | inactive |
| LOC401859 (retired record) | 1 | -0.363 | -0.211 | -0.118 | inactive |
| BZW2 (basic leucine zipper and W2 domains 2) | 1 | 0.645 | -1.6 | -0.135 | inactive |
| DORIP1 (dopamine receptor interacting protein 1) | 1 | 1.52 | 1.94 | 0.538 | inactive |
| C6orf47 (chromosome 6 open reading frame 47) | 1 | 0.101 | 0.0131 | 0.875 | inactive |
| HDGFL2 (HDGF like 2) | 1 | 0.13 | 0.348 | -0.07 | inactive |
| ZNF576 (zinc finger protein 576) | 1 | -0.173 | -0.441 | 0.0571 | inactive |
| LOC388639 (retired record) | 1 | -1.41 | -1.46 | -1.07 | inactive |
| BBOF1 (basal body orientation factor 1) | 1 | -0.91 | -1.14 | -1.46 | inactive |
| HEXIM2 (HEXIM P-TEFb complex subunit 2) | 1 | 0.973 | 1.35 | 1.47 | inactive |
| IGSF11 (immunoglobulin superfamily member 11) | 1 | 1.37 | 1.09 | 2.2 | inactive |
| GPR151 (G protein-coupled receptor 151) | 1 | 1.17 | 0.1 | 0.941 | inactive |
| ATXN10 (ataxin 10) | 1 | -0.845 | -1.91 | -0.108 | inactive |
| RNASET2 (ribonuclease T2) | 1 | 0.578 | 0.193 | 0.56 | inactive |
| LOC401460 (retired record) | 1 | -0.863 | -1.15 | -0.415 | inactive |
| LINC00997 (long independently transcribed non-coding RNA 997) | 1 | 0.0907 | 0.476 | 0.133 | inactive |
| STX16 (syntaxin 16) | 1 | 1.96 | 1.77 | 1.39 | inactive |
| LRRK1 (leucine rich repeat kinase 1) | 1 | -0.0591 | 0.566 | 0.163 | inactive |
| HSD3B7 | 1 | 0.269 | -0.747 | 0.116 | inactive |
| FAM13C (family with sequence similarity 13 member C) | 1 | 0.431 | 0.332 | 0.603 | inactive |
| OR5B2 (olfactory receptor family 5 subfamily B member 2) | 1 | 2.24 | 2.26 | 1.66 | active |
| SLC25A4 | 1 | 0.621 | -0.103 | -0.695 | inactive |
| AP5M1 (adaptor related protein complex 5 subunit mu 1) | 1 | -0.0488 | -0.126 | 0.257 | inactive |
| RUBCNL (rubicon like autophagy enhancer) | 1 | 0.00894 | -0.452 | -0.237 | inactive |
| PTRH2 (peptidyl-tRNA hydrolase 2) | 1 | -0.429 | 0.394 | 0.169 | inactive |
| CHRNA10 (cholinergic receptor nicotinic alpha 10 subunit) | 1 | 1.48 | 1.49 | 1.61 | inactive |
| CDC37 (cell division cycle 37, HSP90 cochaperone) | 1 | 1.57 | -0.148 | 0.566 | inactive |
| CTRB1 (chymotrypsinogen B1) | 1 | 0.399 | 0.0995 | 0.355 | inactive |
| CFAP144 (cilia and flagella associated protein 144) | 1 | 1.37 | 1.99 | 1.8 | inactive |
| LOC401396 (retired record) | 1 | -1.05 | -1.36 | -1.25 | inactive |
| SETP20 (SET pseudogene 20) | 1 | 0.638 | 0.481 | 0.429 | inactive |
| GLS2 (glutaminase 2) | 1 | -1.25 | 0.17 | 0.159 | inactive |
| RFX5 (regulatory factor X5) | 1 | -0.94 | -1.12 | -0.966 | inactive |
| LAMB2 (laminin subunit beta 2) | 1 | 1.41 | 1.53 | 1.8 | inactive |
| SOX2 (SRY-box transcription factor 2) | 1 | 0.413 | 1.4 | 1.83 | inactive |
| LOC132969 (retired record) | 1 | 1.24 | -0.404 | 0.172 | inactive |
| XKR4 (XK related 4) | 1 | 0.255 | -0.203 | -0.0716 | inactive |
| CD109 (CD109 molecule) | 1 | -1.18 | 0.505 | 0.481 | inactive |
| BLTP3B (bridge-like lipid transfer protein family member 3B) | 1 | -1.24 | -1.36 | -1.08 | inactive |
| PRSS21 (serine protease 21) | 1 | 0.249 | 0.291 | 0.301 | inactive |
| GLIS2 (GLIS family zinc finger 2) | 1 | -1.85 | -2.48 | -2.31 | active |
| KCNA4 (potassium voltage-gated channel subfamily A member 4) | 1 | -1.27 | -0.869 | -1.7 | inactive |

Reformatted: results already given
gene | pool no. | robust z-score, replicate 1 | robust z-score, replicate 2 | robust z-score, replicate 3 | outcome
GALNT9 (polypeptide N-acetylgalactosaminyltransferase 9) | 1 | -0.628 | 1.68 | -0.381 | inactive
ZNF547 (zinc finger protein 547) | 1 | 0.18 | -0.121 | 0.177 | inactive
VIRMA (vir like m6A methyltransferase associated) | 1 | 1.33 | 0.0351 | 2.2 | inactive
UGT1A8 (UDP glucuronosyltransferase family 1 member A8) | 1 | 0.631 | 0.736 | 1.09 | inactive
LOC401859 (retired record) | 1 | -0.363 | -0.211 | -0.118 | inactive
BZW2 (basic leucine zipper and W2 domains 2) | 1 | 0.645 | -1.6 | -0.135 | inactive
DORIP1 (dopamine receptor interacting protein 1) | 1 | 1.52 | 1.94 | 0.538 | inactive
C6orf47 (chromosome 6 open reading frame 47) | 1 | 0.101 | 0.0131 | 0.875 | inactive
HDGFL2 (HDGF like 2) | 1 | 0.13 | 0.348 | -0.07 | inactive
ZNF576 (zinc finger protein 576) | 1 | -0.173 | -0.441 | 0.0571 | inactive
LOC388639 (retired record) | 1 | -1.41 | -1.46 | -1.07 | inactive
BBOF1 (basal body orientation factor 1) | 1 | -0.91 | -1.14 | -1.46 | inactive
HEXIM2 (HEXIM P-TEFb complex subunit 2) | 1 | 0.973 | 1.35 | 1.47 | inactive
IGSF11 (immunoglobulin superfamily member 11) | 1 | 1.37 | 1.09 | 2.2 | inactive
GPR151 (G protein-coupled receptor 151) | 1 | 1.17 | 0.1 | 0.941 | inactive
